The record followed here is PubChem BioAssay AID651660 (Broad Institute, 2012).

Protein sequences, listed by entry. Tags and fused reporters are not part of them. Lines headed by an entry give the natural chain unless they say otherwise; changes in a name come on top.
UniProt P43351: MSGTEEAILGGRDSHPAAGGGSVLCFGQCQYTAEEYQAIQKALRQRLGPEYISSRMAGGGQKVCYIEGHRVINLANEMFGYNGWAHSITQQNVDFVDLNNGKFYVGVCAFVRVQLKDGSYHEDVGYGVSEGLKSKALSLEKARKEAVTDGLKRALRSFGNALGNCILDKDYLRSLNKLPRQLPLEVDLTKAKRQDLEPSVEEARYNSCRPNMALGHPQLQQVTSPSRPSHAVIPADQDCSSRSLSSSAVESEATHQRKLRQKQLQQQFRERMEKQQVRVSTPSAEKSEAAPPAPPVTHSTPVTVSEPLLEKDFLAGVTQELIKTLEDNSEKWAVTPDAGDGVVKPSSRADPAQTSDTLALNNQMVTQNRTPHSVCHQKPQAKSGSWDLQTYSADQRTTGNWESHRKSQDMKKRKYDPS

“And” between values parts separate entries of the source, which are not always exact repeats. Equal values may be shown once. About 15 (0.8%) of roughly 1,900 compounds were called active.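 How the source made its calls: active means every replicate shows at least 50% inhibition; inconclusive means mean inhibition at least 50% but some replicate below; inactive means the rest.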 This is one part of the list.

The target of this experiment is DNA repair protein RAD52 homolog (Homo sapiens) (UniProt P43351). As to the kind of experiment: RAD52 ssDNA annealing inhibitors, primary screen, biochemical, FRET, single point (AID 651660).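 Further: 0% = median of neutral control wells and 100% = median of positive control wells.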 As to conditions: Recombinant RAD52 ssDNA annealing, FRET fluorescence, 30 min; at 18.7 µM; stronger effect = higher value.
Take `Cc1ccc2[nH]c3c(c2c1)CCNC3=O`: the inhibition was inactive: -16.6%. Then `CCOc1ccc(C(=O)NC(C)C2COc3ccccc3O2)cc1` (stereo not drawn), with inactive: 0.651%; and `C[C@H](CCC(=O)O)[C@H]1CC[C@H]2[C@@H]3C(=O)C[C@@H]4CC(=O)CC[C@]4(C)[C@H]3CC(=O)[C@]12C`, with inactive: -6.67%; and `Cc1nc2sccn2c(=O)c1CCN1CCC(=C(c2ccc(F)cc2)c2ccc(F)cc2)CC1`, with inactive: 47.2%.

Turning to `CC1(C)CC(=O)C2=C(C1)c1c(ccc3ccccc13)NC2c1ccco1` (stereo not drawn), the inhibition is inactive: -27.1%.

With `O=C(O)CCCCCN=C1CCc2ccccc2N1`, the inhibition is inactive: -14.8%. Then `Cc1nc2ccccc2n1CC(O)Cn1c2ccccc2c2ccccc21` (stereo not drawn), with inactive: 3.8%; and `CCC1(c2ccccc2)NC(=S)N(c2ccc(C)c(C)c2)N1` (stereo not drawn), with inactive: -0.264%. `COC(=O)C1=NN(C(=O)c2cccc(Br)c2)C(O)(c2ccc(Cl)cc2)C1` (stereo not drawn): the inhibition is inactive: -50.8%. Turning to `Cc1ccc2c(CN3CCN(Cc4ccc5c(c4)OCO5)CC3)cc(=O)oc2c1C`, the inhibition was inactive: -4.35%.

On to `CC(=O)OCC1OC(n2ccc(=O)[nH]c2=O)C(O)C1O` (stereo not drawn), for which the inhibition was inactive: -5.18%. As to `CC(NCCc1ccc(O)cc1)C(O)c1ccc(O)cc1` (stereo not drawn), the inhibition was inactive: -8.85%. As to `COc1cccc(CC(=O)NCC2COc3ccccc3O2)c1OC` (stereo not drawn), the inhibition is inactive: 3.16%. Next, `Cc1ccc(/C=N/NC(=O)C2(C)CC2(Br)Br)cc1` (stereo not drawn): inactive: 7.95%; `O=[N+]([O-])c1ccc(O)c2ncccc12`: inactive: -28.6%. In the case of `COc1ccc(C2OC[C@H]3O[C@H](O)[C@H](NC(C)=O)[C@@H](O)[C@@H]3O2)cc1` (stereo partly drawn), the inhibition is inactive: -10.9%. Next, `CC(=O)Oc1ccc(C(c2ccc(OC(C)=O)cc2)c2ccccn2)cc1`: inactive: 12.8%; `N=c1nc(N2CCCCC2)cc(N)n1O`: inactive: 8.37%; `Nc1ccc(C(=O)O)c(O)c1`: inactive: -7.23% and inactive: -328%. Turning to `Cc1ccc2c(c1)c(C)cc(=O)n2CCC(=O)O`, the inhibition was inactive: 7.6%. Then `CC(C)(C)NCC(O)COc1ccccc1C(=O)CCc1ccccc1` (stereo not drawn), with inactive: 9.53%. For `O=C(O)c1ccccc1Nc1cccc(C(F)(F)F)c1`, the inhibition was inactive: -6.2%. For the compound `O=C(NCCc1nc2ccccc2[nH]1)c1cccc(Br)c1`, the inhibition was inactive: 6.58%. Take `CN(C)CCOC(=O)C(c1ccccc1)C1(O)CCCC1` (stereo not drawn): the inhibition is inactive: -4%.

For the compound `C[C@]12CCC3C(CC=C4C[C@@H](O)CC[C@@]43C)C1CCC2[C@]1(C)CCC(=O)O1` (stereo partly drawn), the inhibition was inactive: -4.24%.

On to `CCOC(=O)c1oc2cc(OCC(N)=O)ccc2c(=O)c1-c1ccc(OC)c(OC)c1`, for which the inhibition is inactive: 2.08%. Take `Nc1[nH]c(=O)ncc1F`: the inhibition is inactive: -5.6%.

Consider `CC(C)(C)OC(=O)N1CC(O)CC1C(=O)OCC(=O)c1ccc(Cl)cc1` (stereo not drawn), for which the inhibition is inactive: -8.17%. `COc1ccc(/C=C\C(=O)c2c(O)ccc3c(C)cc(=O)oc23)cc1OC`: the inhibition is inactive: -9.57%.

As to `S=C(NCCOCCOCCNC(=S)Nc1ccccc1)Nc1ccccc1`, the inhibition was inactive: 4.23%. In the case of `NS(=O)(=O)c1cc2c(cc1Cl)NC(C1C[C@H]3C=C[C@@H]1C3)NS2(=O)=O` (stereo partly drawn), the inhibition was inactive: 4.78%.

For `CCCCOc1ccc(C(=O)CCN2CCCCC2)cc1`, the inhibition was inactive: -1.53%. Then `C[C@H](NC(=O)C1(c2ccccc2)CCN(C(=O)[C@H]2CSCN2C(=O)OC(C)(C)C)CC1)C(=O)O`, with inactive: -1.7%; and `COc1cc(CO)ccc1OCc1nnnn1-c1ccc(C)cc1`, with inactive: 5.41%; and `COCCNC(=O)CSc1ccc(Cl)cc1`, with inactive: -17.2%. As for `OC(CCN1CCCC1)(c1ccccc1)C1CCCCC1` (stereo not drawn), the inhibition is inactive: 4.58%. Then `CC(C)(C)c1ccc(/C=C/C(=O)N2CCCCC2)cc1`, with inactive: -9.82%. `NCCc1ccc(O)c(O)c1`: the inhibition is inactive: 6.41%. Next, `Cc1nonc1CN(C)C(=O)c1ccc(OC2CCN(C(=O)c3cccnc3)CC2)cc1`: inactive: -15.6%; `CC1=CC2(O)OCCN(CCO)C2=CC1=O` (stereo not drawn): inactive: -2.13%; `CC(=O)c1cn(C)c(=O)[nH]c1=O`: inactive: -3.65%. As to `COc1cccc(N2CC34C=CC(O3)C(C(=O)O)C4C2=O)c1` (stereo not drawn), the inhibition was inactive: -4.05%.

On to `C[C@H](CS)C(=O)N1CCC[C@H]1C(=O)O`, for which the inhibition was inactive: -0.453%.

On to `COc1ccc(/C=C(/C#N)c2cccnc2)cc1OC`, for which the inhibition is inactive: -8.25%. As for `COC(=O)c1ccc(NC(=O)c2ccccc2SC)cc1`, the inhibition is inactive: -9.21%. On to `CC(=O)OCC(=O)[C@@]1(O)CC[C@H]2[C@@H]3CCC4=CC(=O)C=C[C@]4(C)[C@H]3[C@@H](O)C[C@@]21C`, for which the inhibition is inactive: -1.72%.

In the case of `CC(=O)C1=C(O)C(=O)OC1c1ccc(C)cc1` (stereo not drawn), the inhibition was inactive: -9.67%. For the compound `C[C@]12CC[C@@H]3c4ccc(O)cc4C(=O)C[C@H]3[C@@H]1CC[C@@H]2O`, the inhibition was inactive: 4.17%.

As to `COc1ccc(OC)c(C(=O)c2coc3ccc(O)cc23)c1`, the inhibition is inactive: -0.349%. `COc1cc(NC(=S)NC(=O)c2cccs2)ccc1NC(=O)C(C)C`: the inhibition was inactive: 0.955%. As to `NNC(=O)c1ccncc1`, the inhibition was inactive: -4.11%. On to `COc1ccc(C2C3C(C)=NN=C3CC(C)(O)C2C(C)=O)cc1` (stereo not drawn), for which the inhibition is inactive: -7.78%.

Regarding `COc1cccc(OCc2nnc(-c3cccs3)o2)c1`, the inhibition was inactive: 3.65%. Regarding `CC12CCC(C(=O)N3CCCCC3)([C@H](Br)C1=O)C2(C)C` (stereo partly drawn), the inhibition was inactive: -5.47%. Consider `COc1ccccc1OS(=O)(=O)c1ccc(NC(C)=O)cc1`, for which the inhibition was inactive: 3.22%.

Regarding `CC(=O)Nc1ccc(CN2CCN(C3CCCCC3)C(CCO)C2)cc1` (stereo not drawn), the inhibition is inactive: -3.98%. `CC1(C)O[C@@H]2C[C@H]3[C@@H]4C[C@H](F)C5=CC(=O)CC[C@]5(C)[C@H]4[C@@H](O)C[C@]3(C)[C@]2(C(=O)CO)O1`: the inhibition was inactive: 4.52%. Turning to `CC12CCC(C(=O)NCc3ccc4c(c3)OCO4)(CC1=O)C2(C)C` (stereo not drawn), the inhibition is inactive: -2.64%.

Turning to `CN1C(=O)NC(c2ccc(O)cc2)C2=C1CN(c1cccc3ccccc13)C2=O` (stereo not drawn), the inhibition is inactive: -2.34%. With `Cc1ccccc1N1C(N)=NC(N)=NC1(C)C`, the inhibition was inactive: -5.65%. `COCCCN1C(=O)/C(=C\c2cccs2)C(C(=O)OC)=C1C`: the inhibition is inactive: -5.14%. Then `O=C(O)c1cccnc1`, with inactive: -0.217%; and `CCCCc1oc2ccccc2c1C(=O)c1cc(I)c(OCCN(CC)CC)c(I)c1`, with active: 72.2%.

For the compound `Cc1cccc(N(C)C(=S)Oc2ccc3ccccc3c2)c1`, the inhibition was inactive: 8.78%. Next, `COc1ccc(C(=O)Nc2ccccc2C(=O)NC(Cc2c[nH]c3ccccc23)C(=O)O)cc1` (stereo not drawn): inactive: 3%; `O=C(O)c1cc2cc(F)ccc2[nH]1`: inactive: -2.8%. With `COc1ccc(NC(=O)C2OC3OC(C)(C)OC3C3OC(C)(C)OC23)cc1` (stereo not drawn), the inhibition was inactive: -9.37%. Consider `O=c1c2ccccc2nc2n1CCCN2`, for which the inhibition was inactive: -7.29%.

For `CC(=O)Oc1ccc(C(=O)O)cc1OC(C)=O`, the inhibition was inactive: -4.38%. On to `CCOC(=O)C1=C(C)N[C@@]2(O)c3ccccc3C(=O)[C@@]12O`, for which the inhibition is inactive: 2.52%. As to `Cn1cc(CN2CCC(C(=O)N3CCCCC3)CC2)c(-c2ccccc2F)n1`, the inhibition was inactive: -5.51%. For the compound `CCOc1ccc(CC2CCC(=O)NC2=O)cc1` (stereo not drawn), the inhibition is inactive: 0.225%. As for `Cc1ccc(C2=NOC(=O)/C2=C\C=C\c2ccccc2)cc1`, the inhibition was inactive: -267%.

Consider `O=C(COc1cc(O)c2c(=O)c3ccccc3oc2c1)OCc1ccccc1`, for which the inhibition was inactive: -3.34%. For `CC(C)=CCCC1=CCC2C(=O)NNC(=O)C2C1` (stereo not drawn), the inhibition was inactive: 4.45%. As for `COc1ccc(C(=O)Nc2nc3ccccc3c(=O)[nH]2)cc1`, the inhibition was inactive: -2.12%. On to `CC(C)(C)OC(=O)COc1cc(OCC(=O)OC(C)(C)C)c2c(=O)cc(-c3ccccc3)oc2c1`, for which the inhibition is inactive: 17.5%. For `Cc1nc2c(c3c1[nH]c1ccccc13)C(=O)CC(C)(C)C2`, the inhibition is inactive: -15.9%. As to `CN(C)c1cc(NC(=O)CN2CCOCC2)c2ccccc2n1`, the inhibition is inactive: 13.4%. Take `CC(C)c1cc(=O)oc2c3c4c(cc12)CCCN4CCC3`: the inhibition is inactive: -27%.

Take `CSCC[C@H](NC(=O)OC(C)(C)C)C(=O)N1CCC(C(=O)N[C@@H](C)C(=O)O)CC1`: the inhibition was inactive: -2.27%.

Consider `COc1ccc(/C=C2\CC/C(=C\c3ccc(OC)c(OC)c3)C2=O)cc1OC`, for which the inhibition was inactive: 7.46%. In the case of `COc1cc2c(cc1O)CCN(C(=O)c1ccco1)C2C` (stereo not drawn), the inhibition was inactive: -4.8%. In the case of `CCC(C)NCCOc1ccccc1C` (stereo not drawn), the inhibition is inactive: -7.23%. As for `O=C1Nc2ccc3sc4ccccc4c3c2C1=O`, the inhibition was inactive: 31.8%.

Take `COc1ccccc1NC(=O)N1CCc2[nH]c3ccc(Cl)cc3c2C1`: the inhibition is inactive: -3.48%.

For the compound `CC12CCCCN1CCCc1c2[nH]c2ccccc12` (stereo not drawn), the inhibition was inactive: -495%. Then `Cn1c(=O)c2c(ncn2CC(O)CO)n(C)c1=O` (stereo not drawn), with inactive: 4.42%. As for `COc1cccc(N2C(=O)CC(c3c[nH]c4ccccc34)C2=O)c1` (stereo not drawn), the inhibition is inactive: -22.5%. Next, `O=C(O)C1CSC(c2ccc3c(c2)OCO3)N1` (stereo not drawn): inactive: -10.3%; `N=C1C(c2ccccc2)=C(O)CN1CCCO`: inactive: -1.52%. As for `CO/N=C(\C(=O)N[C@@H]1C(=O)N2C(C(=O)O)=C(COC(C)=O)CS[C@H]12)c1csc(N)n1` (stereo in doubt), the inhibition was inactive: -14.2%. Consider `NC(=O)c1cccnc1`, for which the inhibition is inactive: 1.12%. Then `COC(=O)CN1CC(=O)N(c2ccccc2)C1=S`, with inactive: -5.99%; and `O=C(/C=C/Sc1ccccc1)c1ccccc1`, with inactive: 15.7%; and `C=CCC1(O)C(=O)N2C(=C1C(=O)N1CCOCC1)c1ccccc1CC2(C)C` (stereo not drawn), with inactive: -5%. Take `Cc1c(OC(=O)CNC(=O)OC(C)(C)C)ccc2c3c(c(=O)oc12)CCC3`: the inhibition is inactive: -6.45%. With `OCCC1CN(Cc2ccccc2-c2ccco2)CCN1C1CCCC1` (stereo not drawn), the inhibition is inactive: -0.005%.

What is called inhibition is the relative decrease from the control value, in per cent.
